Test results from publication PMC8358892.
Results are given in words; binding and its absence hold for the method and conditions named. Binding seen in cells or lysates may run through a third protein. Some binding calls cover weakened binding; strength is not graded here.

Legend:
[1] = target: T1, β‐catenin (human (endogenous in HUVEC)), P35222; test: co-IP; HUVEC lysate (Cell Lysis Buffer for IP with protease and phosphatase inhibitors), β-catenin antibody overnight at 4°C, Protein A/G magnetic beads; cells with or without 100 μg/mL AGEs for 60 min, with or without Y654F plasmid; settings: remark: other sources report otherwise
T1 chain: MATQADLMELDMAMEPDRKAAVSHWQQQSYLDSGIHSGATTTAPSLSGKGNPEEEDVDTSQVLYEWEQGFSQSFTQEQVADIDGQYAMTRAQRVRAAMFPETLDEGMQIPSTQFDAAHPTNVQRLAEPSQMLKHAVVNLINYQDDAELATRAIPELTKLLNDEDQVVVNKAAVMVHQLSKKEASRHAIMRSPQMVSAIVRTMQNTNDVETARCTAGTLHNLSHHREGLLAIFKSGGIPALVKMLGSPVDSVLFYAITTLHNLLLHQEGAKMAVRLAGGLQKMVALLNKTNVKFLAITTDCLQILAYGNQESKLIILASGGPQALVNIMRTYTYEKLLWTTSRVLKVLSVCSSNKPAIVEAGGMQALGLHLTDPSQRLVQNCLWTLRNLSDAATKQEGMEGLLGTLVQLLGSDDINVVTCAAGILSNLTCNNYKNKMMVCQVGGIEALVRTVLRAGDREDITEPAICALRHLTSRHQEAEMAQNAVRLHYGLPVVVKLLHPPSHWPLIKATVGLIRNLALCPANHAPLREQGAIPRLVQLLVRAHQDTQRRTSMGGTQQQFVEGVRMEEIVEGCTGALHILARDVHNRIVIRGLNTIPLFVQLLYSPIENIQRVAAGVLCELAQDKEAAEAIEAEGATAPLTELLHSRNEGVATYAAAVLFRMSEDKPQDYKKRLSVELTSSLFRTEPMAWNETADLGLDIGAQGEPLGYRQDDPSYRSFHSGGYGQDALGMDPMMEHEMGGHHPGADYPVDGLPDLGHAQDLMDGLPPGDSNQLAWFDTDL

[2] = target: β‐catenin Y654 phospho‐deficient mutant (Y654F) (UniProt P35222); test: as above
[3] = target: β‐catenin (mouse mesenteric vessels) (mouse (endogenous in mesenteric vessels of C57 mice)) (UniProt Q02248); test: co-IP; mesenteric vessels of C57 mice given PBS or AGEs (10 mg/kg i.p., 7 days); blots of VE-cadherin, α-catenin and β-catenin; precipitating antibody not stated for this tissue

B1: Vascular endothelial (VE)‐cadherin, P33151 48-784 (protein)
chain: DWIWNQMHIDEEKNTSLPHHVGKIKSSVSRKNAKYLLKGEYVGKVFRVDAETGDVFAIERLDRENISEYHLTAVIVDKDTGENLETPSSFTIKVHDVNDNWPVFTHRLFNASVPESSAVGTSVISVTAVDADDPTVGDHASVMYQILKGKEYFAIDNSGRIITITKSLDREKQARYEIVVEARDAQGLRGDSGTATVLVTLQDINDNFPFFTQTKYTFVVPEDTRVGTSVGSLFVEDPDEPQNRMTKYSILRGDYQDAFTIETNPAHNEGIIKPMKPLDYEYIQQYSFIVEATDPTIDLRYMSPPAGNRAQVIINITDVDEPPIFQQPFYHFQLKENQKKPLIGTVLAMDPDAARHSIGYSIRRTSDKGQFFRVTKKGDIYNEKELDREVYPWYNLTVEAKELDSTGTPTGKESIVQVHIEVLDENDNAPEFAKPYQPKVCENAVHGQLVLQISAIDKDITPRNVKFKFILNTENNFTLTDNHDNTANITVKYGQFDREHTKVHFLPVVISDNGMPSRTGTSTLTVAVCKCNEQGEFTFCEDMAAQVGVSIQAVVAILLCILTITVITLLIFLRRRLRKQARAHGKSVPEIHEQLVTYDEEGGGEMDTTSYDVSVLNSVRRGGAKPPRPALDARPSLYAQVQKPPRHAPGAHGGPGEMAAMIEVKKDEADHDGDGPPYDTLHIYGYEGSESIAESLSSLGTDSSDSDVDYDFLNDWGPRFKMLAELYGSDPREELLY
[1]
  binding: binds

B2: Vascular endothelial (VE)‐cadherin (protein, UniProt P33151 48-784)
chain: B1 chain
[2]
  binding: binds

B3: VE‐cadherin (mouse mesenteric vessels) (protein, UniProt P55284 46-784)
chain: DWIWNQMHIDEEKNESLPHYVGKIKSNVNRQNAKYVLQGEFAGKIFGVDANTGNVLAYERLDREKVSEYFLTALIVDKNTNKNLEQPSSFTVKVHDINDNWPVFSHQVFNASVPEMSAIGTSVIRVTAVDADDPTVAGHATVLYQIVKGNEYFSIDNSGLIFTKIKNLDREKQAEYKIVVETQDALGLRGESGTATVMIRLEDINDNFPVFTQSTYTFSVPEDIRVGKPLGFLTVVDPDEPQNRMTKYSIMQGEYRDTFTIETDPKRNEGIIKPTKSLDYEVIQQYTFYIEATDPTIRYEYLSSTSGKNKAMVTINVLDVDEPPVFQRHFYHFKLPENQKKPLIGTVVAKDPDKAQRSIGYSIRKTSDRGQFFRITKQGNIYNEKELDRETYAWYNLTVEANELDSRGNPVGKESIVQVYIEVLDENDNPPEFAQPYEPKVCENAAQGKLVVQISATDKDVVPVNPKFKFALKNEDSNFTLINNHDNTANITVKYGQFNREHAKFHYLPVLISDNGVPSLTGTSTLTVGVCKCNEQGEFTFCEEMAAQAGVSIQALVAIFLCILTITVITLLIILRRRIRKQAHAHSKSALEIHEQLVTYDEEGGGEMDTTSYDVSVLNSVRGGSTKPLRSTMDARPAVYTQVQKPPRLAPGLHGGPREMATMIDVKKEEADNDGGGPPYDTLHIYGYEGAESIAESLSSLSTNSSDSDIDYDFLNDWGPRFKMLAELYGSDPQEELII
[3]
  binding: binds
